Measurements reported in US20230226146A1.
No constants are given. Whether binding was seen depends on the method and setting. Some binding calls cover weakened binding; strength is not graded here.

Sequences of proteins named here, by UniProt entry; tags and fusion partners are left off. A change or cut given only in a name is not applied to a line headed by its entry.
UniProt P27037: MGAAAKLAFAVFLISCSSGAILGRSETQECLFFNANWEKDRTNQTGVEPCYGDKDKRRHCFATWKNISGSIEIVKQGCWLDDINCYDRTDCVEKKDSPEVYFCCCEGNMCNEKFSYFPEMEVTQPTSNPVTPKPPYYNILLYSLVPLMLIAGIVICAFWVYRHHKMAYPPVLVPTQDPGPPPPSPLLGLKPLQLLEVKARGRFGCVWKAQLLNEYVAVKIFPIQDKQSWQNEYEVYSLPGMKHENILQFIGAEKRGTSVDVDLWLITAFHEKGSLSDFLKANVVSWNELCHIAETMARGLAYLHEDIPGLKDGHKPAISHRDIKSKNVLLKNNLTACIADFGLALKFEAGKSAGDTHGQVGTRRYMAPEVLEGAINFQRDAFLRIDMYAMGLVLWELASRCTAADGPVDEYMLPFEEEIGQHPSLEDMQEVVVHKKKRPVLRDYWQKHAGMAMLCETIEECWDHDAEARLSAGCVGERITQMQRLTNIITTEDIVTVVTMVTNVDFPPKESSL

Experiments:
GDF11 = molecular target: T1, GDF11 (UniProt O95390); assay: SPR (Biacore), ligand amine-coupled on CM5 chip
T1 sequence (looked up): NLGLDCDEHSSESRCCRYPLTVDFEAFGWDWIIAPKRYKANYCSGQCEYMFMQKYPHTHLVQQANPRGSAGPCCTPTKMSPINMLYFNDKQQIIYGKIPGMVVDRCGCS

activin B = molecular target: T2, activin B (UniProt P09529); assay: similar binding assay (Biacore)
T2 sequence (looked up): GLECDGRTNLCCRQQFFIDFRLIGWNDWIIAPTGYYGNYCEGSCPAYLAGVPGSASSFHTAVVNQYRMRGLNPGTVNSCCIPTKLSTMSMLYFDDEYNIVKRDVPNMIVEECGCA

GDF8 = molecular target: T3, GDF8 (UniProt O14793); assay: similar binding assay (Biacore)
T3 sequence (looked up): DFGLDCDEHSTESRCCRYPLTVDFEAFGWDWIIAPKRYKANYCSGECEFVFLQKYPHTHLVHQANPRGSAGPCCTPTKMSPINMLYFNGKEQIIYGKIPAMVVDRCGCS

BMP10 = molecular target: T4, BMP10 (UniProt O95393); assay: similar binding assay (Biacore)
T4 sequence (looked up): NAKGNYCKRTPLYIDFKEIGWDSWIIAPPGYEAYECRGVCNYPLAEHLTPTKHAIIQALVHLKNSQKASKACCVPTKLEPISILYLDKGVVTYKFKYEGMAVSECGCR

binding (GDF11): binds
binding (activin B): binds
binding (GDF8): binds
binding (BMP10): binds
Substance: ActRIIA-mFc (from UniProt P27037 21-135) (Fc fusion)
